Measured values as given in WO2012119989A2 (dated 2012).
Results are given in words; binding and its absence hold for the method and conditions named. Some results given as binding are weak or reduced against the parent protein; the word gives no strength.

Legend:
[1] = molecular target: T1, Cell adhesion molecule-1 (CADM1), human, on the cell surface (human) (UniProt Q9BY67); assay: flow cytometry with CADM1 siRNA, DU145 cells
T1 sequence (looked up): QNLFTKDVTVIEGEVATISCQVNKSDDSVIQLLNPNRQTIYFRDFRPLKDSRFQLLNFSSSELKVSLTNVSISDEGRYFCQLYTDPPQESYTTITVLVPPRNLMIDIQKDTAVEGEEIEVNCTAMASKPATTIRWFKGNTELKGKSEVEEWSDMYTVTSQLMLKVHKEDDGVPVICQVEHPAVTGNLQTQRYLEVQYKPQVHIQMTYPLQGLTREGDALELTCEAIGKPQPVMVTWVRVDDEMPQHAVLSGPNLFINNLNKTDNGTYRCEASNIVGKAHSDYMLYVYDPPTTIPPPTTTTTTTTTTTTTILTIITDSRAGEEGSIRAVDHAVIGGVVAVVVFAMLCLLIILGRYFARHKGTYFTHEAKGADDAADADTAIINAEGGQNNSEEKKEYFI

[2] = molecular target: T1, Cell adhesion molecule-1 (CADM1), human, on the cell surface (human); assay: flow cytometry, CHO cells transiently transfected with full-length CADM1
[3] = molecular target: T1, Cell adhesion molecule-1 (CADM1), human, on the cell surface (human); assay: Hum-ZAP internalization assay on CADM1-expressing cancer cell line
[4] = molecular target: T1, Cell adhesion molecule-1 (CADM1), human, on the cell surface (human); assay: flow cytometry titration on human cancer cell lines (Table 9, not given)
[5] = molecular target: T1, Cell adhesion molecule-1 (CADM1), human, on the cell surface (human); assay: flow cytometry, CHO Clon 139 overexpressing human CADM1, signal reduced by CADM1 siRNA s24325; antibody 10ug/ml

Measured: binding

B1: Antibody-10 (antibody, V domains shown)
VH: EVQLLESGGGLVQPGGSLRLSCAASGFTFSMYTMSWVRQAPGKGLEWVSSIWSSGGKTSYADSVKGRFTISRDNSKNTLYLQMNSLRAEDTAVYYCAKESWYFDLWGRGTL
VL: QYELTQDPAVSVALGQTVRITCQGHSLRSYYATWYQQKPGQAPVLVMYGENNRPSGIPDRFSGSSSGNTASLTITGAQAEDEADYYCNSRDNSGNHLVFGGGTNLTVL
notes: also called AB10; AB 1 0
binds: [1] | [2] | [3] | [4] | [5]

B2: Antibody-3 (antibody, V domains shown)
VH: EVQLLESGGGLVQPGGSLRLSCAASGFTFSRYPMYWVRQAPGKGLEWVSSISSSGGLTHYADSVKGRFTISRDNSKNTLYLQMNSLRAEDTAVYYCARGDWYFDLWGRGTL
VL: QYELTQDPAVSVALGQTVRITCQGDSLRTYYASWYQQRPGQAPVLVIYGDNDRPSGIPDRFSGSTSRNTASLTITGAQAEDEAHYYCNSRDSSGNHIFATGTKVTVL
notes: also called AB3; AB 3
binds: [1] | [2] | [4] | [5]
